Experimental findings from patent US4891319A, “Protection of proteins and the like” (Quadrant Bioresources Limited, priority 1985, dated 1990) are described below.

This data set has as its system R-phycoerythrin. The experiment in a line: Fluorescence of R-phycoerythrin after drying with or without trehalose. It counts as physicochemical, marine Rhodophyte. The method, then:
The phycobiliprotein R-phycoerythrin was purified from a marine Rhodophyte. This brilliantly fluorescent red protein was blotted onto nitrocellulose membrane or glass fibre filter paper in phosphate buffer with and without 10% w/v added trehalose and dried at room temperature.
R-phycoerythrin at 5 mg/ml was dried at 37° on glass fibre filter paper (Whatman GF/C), cellulose filter paper (Whatman No. 1) or on nitrocellulose membrane (Schleicher & Schull 0.45μ pore size) in the presence of 5% trehalose in solution and in its absence. In the absence of trehalose the spots of dried R-phycoerythrin changed colour to a purplish red and lost >90% of their fluorescence intensity.

Take `OC[C@H]1O[C@H](O[C@H]2O[C@H](CO)[C@@H](O)[C@H](O)[C@H]2O)[C@H](O)[C@@H](O)[C@@H]1O` [Trehalose, α-D-glucopyranosyl-α-D-glucopyranoside]: the “colour and fluorescence after drying” value was “retained both colour and fluorescence” (5% trehalose, dried at 37° on glass fibre, cellulose or nitrocellulose); “retained its colour, and fluoresced just as brightly as the protein in solution” (10% w/v trehalose, dried at room temperature on nitrocellulose or glass fibre). Besides, the “retention of fluorescent properties on drying” value (dried completely in the presence of trehalose) is on record as “without loss of its fluorescent properties”.
As for R Phycoerythrin, under “absence of trehalose, dried at room temperature”, the “colour and fluorescence after drying” value was “turned purple and lost its ability to fluoresce orange/red”.
